Measurements published in the supplement of paper PMC10849652.
Some of the results follow.

By UniProt entry, the sequences of proteins in these tests, tags left out. Where a name states a change or a piece, a line headed by the entry shows the natural chain unless it says otherwise.
UniProt P06733, whole entry, looked up: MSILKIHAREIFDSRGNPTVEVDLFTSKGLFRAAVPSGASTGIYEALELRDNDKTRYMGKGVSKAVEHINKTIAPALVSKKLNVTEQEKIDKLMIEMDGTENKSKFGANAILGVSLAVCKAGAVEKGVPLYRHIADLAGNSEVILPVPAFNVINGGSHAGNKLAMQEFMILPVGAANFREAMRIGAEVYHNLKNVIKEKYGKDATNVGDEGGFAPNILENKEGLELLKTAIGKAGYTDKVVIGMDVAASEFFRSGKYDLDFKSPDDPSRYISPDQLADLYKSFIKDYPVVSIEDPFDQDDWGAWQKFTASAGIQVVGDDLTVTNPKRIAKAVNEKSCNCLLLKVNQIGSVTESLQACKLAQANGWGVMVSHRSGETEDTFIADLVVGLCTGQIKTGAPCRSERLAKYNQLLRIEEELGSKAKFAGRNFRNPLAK
UniProt P55884, whole entry, looked up: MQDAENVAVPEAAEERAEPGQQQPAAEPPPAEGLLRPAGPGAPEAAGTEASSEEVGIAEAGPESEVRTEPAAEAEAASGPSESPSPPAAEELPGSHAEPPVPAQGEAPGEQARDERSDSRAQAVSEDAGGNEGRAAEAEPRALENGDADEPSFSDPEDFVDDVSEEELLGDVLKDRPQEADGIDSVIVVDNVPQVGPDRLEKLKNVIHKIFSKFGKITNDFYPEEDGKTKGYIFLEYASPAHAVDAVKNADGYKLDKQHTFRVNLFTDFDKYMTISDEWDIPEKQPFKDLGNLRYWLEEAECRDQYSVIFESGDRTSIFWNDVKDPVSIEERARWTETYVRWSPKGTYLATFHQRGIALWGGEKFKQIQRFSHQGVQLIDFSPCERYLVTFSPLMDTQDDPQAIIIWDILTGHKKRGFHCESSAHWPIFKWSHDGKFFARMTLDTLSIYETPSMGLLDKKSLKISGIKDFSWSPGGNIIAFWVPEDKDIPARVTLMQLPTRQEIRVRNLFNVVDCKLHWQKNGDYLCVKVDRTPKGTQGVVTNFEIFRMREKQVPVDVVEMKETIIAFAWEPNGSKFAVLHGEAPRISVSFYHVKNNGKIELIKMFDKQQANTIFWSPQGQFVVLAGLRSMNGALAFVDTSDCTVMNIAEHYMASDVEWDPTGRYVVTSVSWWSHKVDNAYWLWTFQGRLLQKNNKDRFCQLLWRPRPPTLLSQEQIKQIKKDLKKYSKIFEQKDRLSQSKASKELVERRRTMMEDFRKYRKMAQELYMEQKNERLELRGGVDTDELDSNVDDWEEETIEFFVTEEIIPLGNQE
UniProt O00303, whole entry, looked up: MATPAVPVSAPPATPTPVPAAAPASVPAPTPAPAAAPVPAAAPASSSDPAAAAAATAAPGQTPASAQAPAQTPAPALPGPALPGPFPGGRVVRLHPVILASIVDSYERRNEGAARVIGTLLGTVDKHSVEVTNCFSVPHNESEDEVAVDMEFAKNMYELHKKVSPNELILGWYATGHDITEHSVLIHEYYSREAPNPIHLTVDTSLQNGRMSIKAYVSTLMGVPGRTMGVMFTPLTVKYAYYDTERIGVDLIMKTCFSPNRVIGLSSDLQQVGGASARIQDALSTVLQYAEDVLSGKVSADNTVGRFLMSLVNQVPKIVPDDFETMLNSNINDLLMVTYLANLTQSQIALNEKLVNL
UniProt P68104, whole entry, looked up: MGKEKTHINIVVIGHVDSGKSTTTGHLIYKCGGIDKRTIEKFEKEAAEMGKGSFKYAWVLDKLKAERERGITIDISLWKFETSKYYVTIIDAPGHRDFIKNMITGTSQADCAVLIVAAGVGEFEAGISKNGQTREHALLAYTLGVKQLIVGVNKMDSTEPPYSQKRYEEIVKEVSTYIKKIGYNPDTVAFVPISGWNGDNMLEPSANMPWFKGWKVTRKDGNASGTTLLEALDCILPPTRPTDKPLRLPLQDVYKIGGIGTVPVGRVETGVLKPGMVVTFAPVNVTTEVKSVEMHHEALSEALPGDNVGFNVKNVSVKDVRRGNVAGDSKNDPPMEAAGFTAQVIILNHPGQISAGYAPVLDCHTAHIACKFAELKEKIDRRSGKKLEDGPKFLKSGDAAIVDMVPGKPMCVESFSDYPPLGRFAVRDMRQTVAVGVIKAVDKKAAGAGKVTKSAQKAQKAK
UniProt Q7Z2Z2: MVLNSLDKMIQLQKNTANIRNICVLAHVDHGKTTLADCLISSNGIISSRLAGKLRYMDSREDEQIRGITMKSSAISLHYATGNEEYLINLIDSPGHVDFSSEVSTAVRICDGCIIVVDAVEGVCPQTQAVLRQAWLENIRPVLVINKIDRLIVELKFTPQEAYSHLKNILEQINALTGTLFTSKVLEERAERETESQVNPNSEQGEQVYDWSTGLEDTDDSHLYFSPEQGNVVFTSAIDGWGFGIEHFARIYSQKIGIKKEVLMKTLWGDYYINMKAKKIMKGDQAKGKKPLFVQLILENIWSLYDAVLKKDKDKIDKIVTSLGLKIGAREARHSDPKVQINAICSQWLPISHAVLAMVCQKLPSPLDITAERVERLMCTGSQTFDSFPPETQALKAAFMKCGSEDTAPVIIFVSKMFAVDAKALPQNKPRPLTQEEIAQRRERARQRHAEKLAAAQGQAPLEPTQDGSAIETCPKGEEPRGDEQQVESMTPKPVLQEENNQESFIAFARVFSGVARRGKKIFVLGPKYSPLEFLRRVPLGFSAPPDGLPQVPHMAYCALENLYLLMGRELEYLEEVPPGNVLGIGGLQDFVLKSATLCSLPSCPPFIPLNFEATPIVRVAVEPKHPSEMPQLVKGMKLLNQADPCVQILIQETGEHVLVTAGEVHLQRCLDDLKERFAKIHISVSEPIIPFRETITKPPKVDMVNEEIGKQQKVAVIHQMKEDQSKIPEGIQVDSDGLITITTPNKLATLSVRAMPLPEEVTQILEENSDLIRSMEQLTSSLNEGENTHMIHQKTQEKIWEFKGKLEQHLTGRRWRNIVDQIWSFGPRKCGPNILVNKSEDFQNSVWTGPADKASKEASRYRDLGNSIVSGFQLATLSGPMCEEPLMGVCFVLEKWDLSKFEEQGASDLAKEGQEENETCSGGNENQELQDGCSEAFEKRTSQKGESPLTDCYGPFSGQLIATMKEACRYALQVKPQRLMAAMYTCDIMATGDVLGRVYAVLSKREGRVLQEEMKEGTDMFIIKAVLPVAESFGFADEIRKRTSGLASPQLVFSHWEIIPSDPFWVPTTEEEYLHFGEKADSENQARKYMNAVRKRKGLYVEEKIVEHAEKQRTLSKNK
UniProt Q9BW60: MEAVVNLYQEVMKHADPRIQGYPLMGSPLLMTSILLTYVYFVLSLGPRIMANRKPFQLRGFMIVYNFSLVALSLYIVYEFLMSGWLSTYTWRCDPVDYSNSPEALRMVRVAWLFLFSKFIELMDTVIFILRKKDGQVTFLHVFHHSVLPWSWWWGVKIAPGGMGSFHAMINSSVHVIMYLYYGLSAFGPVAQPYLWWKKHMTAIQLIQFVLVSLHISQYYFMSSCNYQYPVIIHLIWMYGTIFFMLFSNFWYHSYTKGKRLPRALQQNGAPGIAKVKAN
UniProt Q96KQ7: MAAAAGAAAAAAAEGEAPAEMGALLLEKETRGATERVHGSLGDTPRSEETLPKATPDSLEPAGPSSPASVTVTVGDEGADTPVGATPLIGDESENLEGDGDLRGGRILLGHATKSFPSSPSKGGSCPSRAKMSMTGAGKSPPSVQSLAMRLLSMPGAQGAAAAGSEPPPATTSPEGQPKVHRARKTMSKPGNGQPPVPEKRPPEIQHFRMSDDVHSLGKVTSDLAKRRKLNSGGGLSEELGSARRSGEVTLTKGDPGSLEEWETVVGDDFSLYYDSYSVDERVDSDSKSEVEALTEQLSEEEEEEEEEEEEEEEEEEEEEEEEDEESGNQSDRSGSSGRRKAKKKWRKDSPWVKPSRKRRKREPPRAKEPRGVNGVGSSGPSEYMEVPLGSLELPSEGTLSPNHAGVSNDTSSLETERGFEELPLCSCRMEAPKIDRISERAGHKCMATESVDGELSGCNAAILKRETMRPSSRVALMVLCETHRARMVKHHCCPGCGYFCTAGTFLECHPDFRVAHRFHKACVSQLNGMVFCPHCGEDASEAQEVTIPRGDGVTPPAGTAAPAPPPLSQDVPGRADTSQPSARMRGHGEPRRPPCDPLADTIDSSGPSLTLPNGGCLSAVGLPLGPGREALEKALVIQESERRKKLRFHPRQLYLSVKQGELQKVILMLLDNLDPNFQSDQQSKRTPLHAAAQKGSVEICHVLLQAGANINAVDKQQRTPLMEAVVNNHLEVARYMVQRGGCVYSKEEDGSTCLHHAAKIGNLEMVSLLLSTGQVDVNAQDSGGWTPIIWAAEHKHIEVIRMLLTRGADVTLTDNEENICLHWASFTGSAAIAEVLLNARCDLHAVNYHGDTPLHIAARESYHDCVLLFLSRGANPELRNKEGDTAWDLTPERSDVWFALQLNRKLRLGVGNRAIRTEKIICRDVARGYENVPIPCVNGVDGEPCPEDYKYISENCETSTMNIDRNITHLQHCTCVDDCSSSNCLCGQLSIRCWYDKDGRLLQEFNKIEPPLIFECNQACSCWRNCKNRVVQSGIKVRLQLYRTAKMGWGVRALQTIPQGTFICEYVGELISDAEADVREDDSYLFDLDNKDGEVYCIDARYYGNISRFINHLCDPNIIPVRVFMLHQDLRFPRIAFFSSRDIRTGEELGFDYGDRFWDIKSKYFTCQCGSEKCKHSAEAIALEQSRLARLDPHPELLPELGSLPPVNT
UniProt O43768: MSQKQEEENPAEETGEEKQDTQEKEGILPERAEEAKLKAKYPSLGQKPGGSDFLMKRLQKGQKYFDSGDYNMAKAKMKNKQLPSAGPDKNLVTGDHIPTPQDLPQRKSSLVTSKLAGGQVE
UniProt P0DPD8: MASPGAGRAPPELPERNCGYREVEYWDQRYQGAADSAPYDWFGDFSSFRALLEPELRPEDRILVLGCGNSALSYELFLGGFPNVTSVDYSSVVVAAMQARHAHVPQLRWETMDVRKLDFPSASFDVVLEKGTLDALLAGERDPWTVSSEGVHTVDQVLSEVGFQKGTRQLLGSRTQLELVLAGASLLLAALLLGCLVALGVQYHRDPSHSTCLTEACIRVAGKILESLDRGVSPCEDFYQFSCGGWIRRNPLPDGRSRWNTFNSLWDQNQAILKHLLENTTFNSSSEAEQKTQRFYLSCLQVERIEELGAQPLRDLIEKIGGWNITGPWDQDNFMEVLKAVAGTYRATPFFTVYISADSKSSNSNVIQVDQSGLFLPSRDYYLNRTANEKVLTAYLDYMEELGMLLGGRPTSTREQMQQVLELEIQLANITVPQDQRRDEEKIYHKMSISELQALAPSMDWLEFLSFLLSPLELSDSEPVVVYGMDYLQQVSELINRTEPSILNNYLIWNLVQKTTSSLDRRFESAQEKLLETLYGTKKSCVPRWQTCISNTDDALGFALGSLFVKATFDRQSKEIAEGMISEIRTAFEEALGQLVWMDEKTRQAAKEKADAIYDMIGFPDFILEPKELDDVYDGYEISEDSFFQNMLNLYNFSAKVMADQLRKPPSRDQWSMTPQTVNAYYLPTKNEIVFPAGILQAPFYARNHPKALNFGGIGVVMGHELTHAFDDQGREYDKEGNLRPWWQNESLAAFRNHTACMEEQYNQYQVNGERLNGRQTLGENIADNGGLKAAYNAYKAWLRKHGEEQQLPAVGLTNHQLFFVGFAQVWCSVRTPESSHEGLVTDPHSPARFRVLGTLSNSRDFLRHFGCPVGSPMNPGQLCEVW
UniProt Q6IA86: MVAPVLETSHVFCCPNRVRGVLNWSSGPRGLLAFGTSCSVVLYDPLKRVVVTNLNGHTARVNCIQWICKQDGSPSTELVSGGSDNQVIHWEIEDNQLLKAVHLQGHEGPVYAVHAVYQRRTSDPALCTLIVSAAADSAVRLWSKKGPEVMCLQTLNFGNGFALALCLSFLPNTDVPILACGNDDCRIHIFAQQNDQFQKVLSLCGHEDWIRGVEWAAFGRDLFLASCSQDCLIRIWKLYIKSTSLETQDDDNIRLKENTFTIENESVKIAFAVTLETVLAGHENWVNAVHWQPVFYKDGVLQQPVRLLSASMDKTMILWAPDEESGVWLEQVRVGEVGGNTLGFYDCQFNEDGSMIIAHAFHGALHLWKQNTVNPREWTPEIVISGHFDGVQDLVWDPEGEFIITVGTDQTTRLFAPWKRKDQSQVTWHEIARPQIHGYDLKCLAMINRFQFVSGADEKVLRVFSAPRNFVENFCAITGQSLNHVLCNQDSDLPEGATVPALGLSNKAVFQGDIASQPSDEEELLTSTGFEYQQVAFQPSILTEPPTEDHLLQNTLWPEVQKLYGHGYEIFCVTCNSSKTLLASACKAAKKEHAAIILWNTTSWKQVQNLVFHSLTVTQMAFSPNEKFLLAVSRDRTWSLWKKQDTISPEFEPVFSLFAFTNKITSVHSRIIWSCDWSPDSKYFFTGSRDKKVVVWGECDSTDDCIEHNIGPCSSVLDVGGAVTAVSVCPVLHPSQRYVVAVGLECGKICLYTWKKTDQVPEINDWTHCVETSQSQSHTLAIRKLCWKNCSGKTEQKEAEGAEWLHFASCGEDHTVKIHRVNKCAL

Legend:
Test in all cases: log2 fold change, soluble protein after heating vs DMSO (PISA); higher = thermal stabilisation; K562 cells, 10 uM, 30 min; active = over 0.2 and 3.5 SD of the protein, either way, in both replicates (recomputed)
[1] = compound: COC1=CC=C(C=C1)CN2C=CC3=C2C=C(C=C3)C(=O)NO
Summary of the method: (§1)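 Thermal stability values are relative to control samples and come from duplicates. They are expressed as log2 fold changes. For measurement, K562 cells (2×10^6 cells/mL) received 10 μM compound for 30 min, and aliquots were heated for 3 min over 48°C-58°C, pooled, and extracted at 4°C in PBS with 0.5% NP-40. Soluble protein, the supernatant after 21,000xg for 90 min, was quantified by TMTpro 16plex LC-MS/MS with equalised channel sums.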

filanesib = compound: CON(C)C(=O)N1N=C(c2cc(F)ccc2F)S[C@@]1(CCCN)c1ccccc1 [filanesib]
Summary of the method: as §1

zotarolimus = compound: CO[C@H]1C[C@@H]2CC[C@@H](C)[C@@](O)(O2)C(=O)C(=O)N2CCCC[C@H]2C(=O)O[C@H]([C@H](C)C[C@@H]2CC[C@H](n3cnnn3)[C@H](OC)C2)CC(=O)[C@H](C)/C=C(\C)[C@@H](O)[C@@H](OC)C(=O)[C@H](C)C[C@H](C)/C=C/C=C/C=C/1C [zotarolimus]
Summary of the method: as §1

idasanutlin = compound: COc1cc(C(=O)O)ccc1NC(=O)[C@@H]1N[C@@H](CC(C)(C)C)[C@](C#N)(c2ccc(Cl)cc2F)[C@H]1c1cccc(Cl)c1F [idasanutlin]
Summary of the method: as §1

alisertib = compound: COc1cc(Nc2ncc3c(n2)-c2ccc(Cl)cc2C(c2c(F)cccc2OC)=NC3)ccc1C(=O)O [alisertib]
Summary of the method: as §1

[2] = compound: COc1cc2nc(-c3cc(F)ccc3O)nc(N[C@@H]3CNC[C@H]3C(C)(C)O)c2cc1OC
Summary of the method: as §1

gefitinib = compound: COc1cc2ncnc(Nc3ccc(F)c(Cl)c3)c2cc1OCCCN1CCOCC1 [gefitinib]
Summary of the method: as §1

[3] = compound: COc1cccc2cc(-c3nc([C@H]4CC[C@H](C(=O)O)CC4)n4ncnc(N)c34)[nH]c12
Summary of the method: as §1

lapatinib = compound: CS(=O)(=O)CCNCc1ccc(-c2ccc3ncnc(Nc4ccc(OCc5cccc(F)c5)c(Cl)c4)c3c2)o1 [lapatinib]
Summary of the method: as §1

pictilisib = compound: CS(=O)(=O)N1CCN(Cc2cc3nc(-c4cccc5[nH]ncc45)nc(N4CCOCC4)c3s2)CC1 [pictilisib]
Summary of the method: as §1

Measured: log2 fold change

ENO1 isoform 2 (UniProt P06733)
inactive: [1] 0.28 | filanesib -0.137 | zotarolimus -0.045 | idasanutlin 0.042 | alisertib -0.001 | [2] 0.162 | gefitinib 0.001 | [3] 0.042 | lapatinib -0.085 | pictilisib 0.102

EIF3B isoform 2 (UniProt P55884)
inactive: [1] -0.012 | filanesib 0.086 | zotarolimus 0.051 | idasanutlin 0.034 | alisertib -0.161 | [2] -0.008 | gefitinib 0 | [3] -0.233 | lapatinib 0.05 | pictilisib -0.064

EIF3F (UniProt O00303)
inactive: [1] -0.046 | filanesib 0.037 | zotarolimus 0.075 | idasanutlin -0.021 | alisertib -0.043 | [2] -0.002 | gefitinib -0.003 | [3] -0.111 | lapatinib 0.002 | pictilisib -0.01

ELOF1 (UniProt P60002)
inactive: [1] 0.169 | filanesib -0.021 | zotarolimus 0.018 | idasanutlin -0.009 | alisertib 0.108 | [2] -0.007 | gefitinib -0.039 | [3] -0.147 | lapatinib 0.014 | pictilisib -0.276

EIF2AK4 (UniProt Q9P2K8)
inactive: [1] -0.105 | filanesib 0.043 | zotarolimus -0.049 | idasanutlin 0.218 | alisertib 0.112 | [2] -0.015 | gefitinib 0.005 | [3] 0.024 | lapatinib 0.015 | pictilisib 0.04

EEF1A1 (UniProt P68104)
inactive: [1] 0.081 | filanesib -0.119 | zotarolimus 0.182 | idasanutlin -0.086 | alisertib -0.347 | [2] -0.216 | gefitinib -0.029 | [3] -0.034 | lapatinib 0.1

EMC1 (UniProt Q8N766)
inactive: [1] -0.005 | filanesib -0.047 | zotarolimus 0.007 | idasanutlin -0.045 | alisertib -0.037 | [2] 0.014 | gefitinib 0.013 | [3] 0.022 | lapatinib 0.028 | pictilisib -0.038

EFL1 (UniProt Q7Z2Z2)
inactive: [1] -0.021 | filanesib -0.069 | zotarolimus 0.022 | idasanutlin -0.071 | alisertib -0.013 | [2] 0.042 | gefitinib 0.019 | [3] 0.033 | lapatinib -0.034 | pictilisib -0.016

ELOVL1 (UniProt Q9BW60)
inactive: [1] -0.103 | filanesib -0.139 | zotarolimus -0.051 | idasanutlin -0.051 | alisertib 0.032 | [2] -0.084 | gefitinib -0.087 | [3] 0.032 | lapatinib -0.078 | pictilisib -0.046

EHMT2 (UniProt Q96KQ7)
inactive: [1] 0.013 | filanesib 0.141 | zotarolimus 0.125 | idasanutlin 0.125 | alisertib -0.158 | [2] -0.153 | gefitinib -0.017 | [3] -0.04 | lapatinib -0.009 | pictilisib -0.022

ENSA isoform 3 (UniProt O43768)
inactive: [1] -0.057 | filanesib -0.009 | zotarolimus -0.015 | idasanutlin 0.038 | alisertib -0.052 | [2] -0.009 | gefitinib 0.018 | [3] 0.051 | lapatinib -0.015 | pictilisib -0.006

EEF1AKMT4-ECE2 (UniProt P0DPD8)
inactive: [1] 0.167 | filanesib -0.152

ENDOD1 (UniProt O94919)
inactive: [1] -0.009 | filanesib 0.012 | zotarolimus -0.076 | idasanutlin -0.007 | alisertib 0.042 | [2] 0.023 | gefitinib 0.023 | [3] 0.091 | lapatinib -0.019 | pictilisib 0.06

Quoted from the results shown (two entries):
ELOVL1 (UniProt Q9BW60)
inactive: [1] -0.103 | filanesib -0.139 | zotarolimus -0.051 | idasanutlin -0.051 | alisertib 0.032 | [2] -0.084 | gefitinib -0.087 | [3] 0.032 | lapatinib -0.078 | pictilisib -0.046

EHMT2 (UniProt Q96KQ7)
inactive: [1] 0.013 | filanesib 0.141 | zotarolimus 0.125 | idasanutlin 0.125 | alisertib -0.158 | [2] -0.153 | gefitinib -0.017 | [3] -0.04 | lapatinib -0.009 | pictilisib -0.022

Later entries

ELOB (UniProt Q15370)
inactive: [1] 0.015 | filanesib -0.006 | zotarolimus 0.042 | idasanutlin -0.032 | alisertib -0.078 | [2] 0.022 | gefitinib 0.009 | [3] 0.007 | lapatinib -0.037 | pictilisib 0.038

EML2 isoform 3 (UniProt O95834)
inactive: [1] -0.039 | filanesib -0.127 | zotarolimus 0.014 | idasanutlin -0.077 | alisertib -0.018 | [2] 0.001 | gefitinib -0.015 | [3] 0.04 | lapatinib -0.013 | pictilisib 0.06

ELP2 isoform 6 (UniProt Q6IA86)
inactive: [1] -0.067 | filanesib -0.034 | zotarolimus 0.013 | idasanutlin -0.013 | alisertib -0.005 | [2] -0.004 | gefitinib -0.01 | [3] 0.038 | lapatinib -0.022 | pictilisib 0.013
